# Microarray screen: hit calls

Source: the ROBIN nucleic acid binder screens (doi:10.1002/anie.202211358).

Oligonucleotides screened, 5′ to 3′:
TPP: TPP riboswitch RNA three-way junction, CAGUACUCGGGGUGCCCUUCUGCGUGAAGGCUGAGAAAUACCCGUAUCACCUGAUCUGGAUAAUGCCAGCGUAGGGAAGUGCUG. About 160 hits among about 24,000 compounds.
PreQ1: PreQ1 riboswitch RNA pseudoknot, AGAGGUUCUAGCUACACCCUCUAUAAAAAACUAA. From B. subtilis. About 170 hits among about 24,000 compounds.
SAM-II: SAM-II riboswitch RNA pseudoknot, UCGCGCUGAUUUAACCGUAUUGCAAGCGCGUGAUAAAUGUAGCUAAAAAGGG. About 200 hits among about 21,000 compounds.

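The test is a small-molecule microarray: each compound is printed twice on a reactive slide, and binding shows as fluorescence of the labelled oligonucleotide after washing. The data file lists only calls. An earlier report of the laboratory on the PreQ1, TPP and SAM-II riboswitches (doi:10.1038/s41467-019-09493-3) used 1 µM RNA for 2 h and required a mean Z-score above 3 (spot signal-to-noise against the whole library), a score well above that on a control array, and duplicate spots agreeing (coefficient of variation under 100); it then also set aside compounds that hit other targets, which this list keeps. The cut-offs behind this list may differ. These are primary screening calls, not affinities; a compound without a hit may have attached poorly or may still bind in solution.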 Key: yes = hit, no = tested without a hit. This is an unselected part of the compounds tested. A dash means that no call is listed here.

| compound | TPP | PreQ1 | SAM-II |
|---|---|---|---|
| `COc1ccc(-c2nc3nc(C)cc(N(C)CCO)n3n2)cc1` | no | no | - |
| `Cc1cc(CN2CC[C@@H](NC(=O)c3ccncc3)[C@H](O)C2)ccc1F` | no | no | no |
| `Nc1nc(CNC2CCN(c3nc4ccc(Cl)cc4s3)CC2)n[nH]1` | no | no | yes |
| `Cc1n[nH]c(C)c1C(N)C(=O)NCc1cc(CC(C)C)no1` (stereo not shown) | no | no | no |
| `OCC#CCSc1nnc(-c2ccccc2Br)o1` | no | no | no |
| `O=S1(=O)C[C@H](NCc2ccccc2F)[C@@H](S(=O)(=O)c2ccccc2)C1` | no | no | - |
| `O=C(CSc1nc2sc3c(c2c(=O)n1-c1ccccc1)CCCC3)NCCCO` | no | no | no |
| `OC1COCCN(Cc2cc(-c3ccccc3OC(F)(F)F)no2)C1` (stereo not shown) | no | no | no |
| `Cc1cccc(C2C(C#N)=C(N)OC3=C2S(=O)(=O)N(Cc2ccc(F)cc2)c2ccccc23)c1` (stereo not shown) | no | no | - |
| `Cc1c(O)cccc1C(=O)N[C@@H](CSc1ccccc1)[C@H](O)CN1C[C@H]2CCCC[C@@H]2C[C@@H]1C(=O)NC(C)(C)C` | no | no | no |
| `c1ccc(-c2ncn(C3CCNC3)c2-c2ccc3ccccc3n2)cc1` (stereo not shown) | no | no | no |
| `CCCCOC(=O)C1=C(N)OC(C)=C(C(=O)OCc2ccccc2)C12C(=O)Nc1ccccc12` (stereo not shown) | no | no | no |
| `COc1ccc(C(=O)OCCNc2nc(-c3ccccc3)nc3ccccc23)cc1` | no | no | no |
| `CN(C)c1c(N)c(=O)oc2ccccc12` | no | no | no |
| `Cc1ccc(NS(=O)(=O)c2cc(Br)cnc2N)cc1Cl` | no | no | - |
| `O=C(CCc1cn[nH]c1)N(CCO)Cc1ccccc1Cl` | no | no | no |
| `O=C1CCC2(CCN(C(=O)c3ccc(CO)o3)CC2)CN1CCCn1ccnc1` | no | no | no |
| `CC(O)C#CC1(C)CCCC(C)(C)O1` (stereo not shown) | no | no | no |
| `COc1ccc(CNc2cc(C)nc3c(-c4ccc(OC)c(OC)c4)c(C)nn23)cc1` | no | no | no |
| `O=C1CCCN1CCCNc1nc2ccccc2c2nc(-c3cccnc3)nn12` | no | no | - |
| `Cc1cc(NC2CCCc3nc(-c4ccccc4)ncc32)nc(N)n1` (stereo not shown) | no | no | no |
| `CCc1nc(NC(C)(C)C)c2cnn(-c3ccccc3)c2n1` | no | no | no |
| `CN(Cc1cccc2cnccc12)C(=O)C1Cc2cc(Cl)ccc2N1` (stereo not shown) | no | no | no |
| `COc1ccccc1N1CCC(N2CCNC(C(=O)NC3CC3)C2)CC1` (stereo not shown) | no | no | no |
| `O=C(O)C1=NN(c2cc(Cl)c(S(=O)(=O)O)cc2Cl)C(=O)C1` | no | no | no |
| `O=S1(=O)C=CC(Nc2ccccc2)C1` (stereo not shown) | no | no | no |
| `CCn1nc(CO)c2c1CCN(C(=O)c1cnn(-c3ccccc3OC)c1)C2` | no | no | no |
| `CC(NC1CCc2ccccc2C1)C12CC3CC(CC(c4ccc(Cl)cc4)(C3)C1)C2` (stereo not shown) | no | no | no |
| `N#CC1=C(N)OC2=C(C(=O)CCC2)C1c1ccc(C(F)(F)F)cc1` (stereo not shown) | no | no | no |
| `Nc1nc2n(c1C(=O)c1ccc3c(c1)CCCC3)CCC2` | no | no | no |
| `C(#Cc1ccccc1)CNCc1ccc2c(c1)OCO2` | no | no | no |
| `CCC(NC1CS(=O)(=O)CC1O)C(=O)O` (stereo not shown) | no | no | no |
| `CCOC(=O)c1ccc2nc(C)cc(Nc3ccc(C(=O)OC)cc3)c2c1` | no | no | no |
| `Cc1nc(NC(=O)N2CCC[C@@H]2C(N)=O)sc1-c1ccnc(C(C)(C)C(F)(F)F)c1` | no | no | no |
| `Fc1ccc(Nc2nc(-c3ccccc3)cs2)cc1` | no | no | no |
| `Cc1ncc2c(c1CNC(=O)CCN1Cc3ccccc3C1=O)CCNC2` | no | no | no |
| `CSc1ccccc1C(=O)C1CCCN(c2cc(C)nc(N)n2)C1` (stereo not shown) | no | no | no |
| `CC(C)c1cc(-c2cc(Cl)ccc2OCC(N)=O)c(C#N)c(N)n1` | no | no | no |
| `CCN(CC)C(=O)[C@@H]1C[C@H](N)CN1C(=O)Cc1c[nH]c(=O)n(C)c1=O` | no | no | no |
| `O=C(O)[C@]12CCCN[C@@H]1CCN(S(=O)(=O)c1cc3ccccc3o1)C2` | no | no | no |
| `CC(C)c1cc(C(=O)N2CC=CC2CO)n(C)n1` (stereo not shown) | no | no | no |
| `CSc1ccc(-c2c(C#N)c(N)nc3c2CCCC3)cc1` | no | no | no |
| `Cc1c([N+](=O)[O-])oc2c1C(=O)NCCC2` | no | no | no |
| `c1ccc(CCNc2nc(-c3c[nH]c4ccccc34)cs2)cc1` | no | no | - |
| `COc1cc(-c2nc3nc(C)cc(C)n3c2Nc2ccccc2)ccc1O` | no | no | no |
| `N#CC1=C(N)Oc2ccc3ccccc3c2C1c1cccc(F)c1` (stereo not shown) | no | no | no |

5 of the entries, repeated:

compound,TPP,PreQ1,SAM-II
Nc1nc(CNC2CCN(c3nc4ccc(Cl)cc4s3)CC2)n[nH]1,no,no,yes
CCN(CC)C(=O)[C@@H]1C[C@H](N)CN1C(=O)Cc1c[nH]c(=O)n(C)c1=O,no,no,no
CCc1nc(NC(C)(C)C)c2cnn(-c3ccccc3)c2n1,no,no,no
CC(C)c1cc(-c2cc(Cl)ccc2OCC(N)=O)c(C#N)c(N)n1,no,no,no
N#CC1=C(N)OC2=C(C(=O)CCC2)C1c1ccc(C(F)(F)F)cc1 (stereo not shown),no,no,no